Reference: paper PMC7819943, “Rice protein-binding microarrays: a tool to detect cis-acting elements near promoter regions in rice”
The other results are listed elsewhere or left out.

Chains of the proteins cited; added tags and fusions are not shown.
UniProt Q0JBA9, entry or part of it: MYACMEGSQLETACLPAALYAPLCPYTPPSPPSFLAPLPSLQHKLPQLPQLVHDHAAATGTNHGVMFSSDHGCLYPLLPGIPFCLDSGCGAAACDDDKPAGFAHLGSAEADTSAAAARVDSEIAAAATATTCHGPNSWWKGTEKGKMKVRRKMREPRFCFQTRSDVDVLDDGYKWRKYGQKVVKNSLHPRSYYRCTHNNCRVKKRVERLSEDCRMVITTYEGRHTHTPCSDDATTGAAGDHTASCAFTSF

Target: OsWRKY34 (Oryza sativa, UniProt Q0JBA9 1-250)
Test: protein-binding microarray (RPBM); PBS, 2% BSA, 51.3 ng/ul salmon testes DNA, 50 uM zinc acetate, 200 nM TF, 25 C, 1 h; high values mean tight binding
Details: protein: recombinant; tags: N-terminal polyhistidine and DsRed monomer fusion (pET32a); label: CyDye5-dUTP incorporated in the synthesized complementary strand; 3' TTTTT single-stranded linker to array surface; dsDNA, one strand shown
In short: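 Binding signal is defined as the fluorescence intensity of each feature in arbitrary units, read on an Axon 4000B scanner. Transcription factors with N-terminal polyhistidine and DsRed fusions came from E. coli BL21-CodonPlus and were purified on Ni–NTA. They were incubated at 200 nM for 1 h at 25 °C on a custom Agilent array that had been made double-stranded with Cy5-dUTP, with 50 µM zinc acetate present, and the array was washed.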

Sequence	binding signal
TCCGCGACGGCCGCTTCCCGTTCCTGTACTTGCGATCCCTCGGAGTCACCTAGTGCAG	9200 fluorescence intensity (a.u.)
CACCATCTAGACACTTCCATCATGTTATCATACTAGTAACCGGAGTCACCTAGTGCAG	9070 fluorescence intensity (a.u.)
CACCTACTCAATGCCTCATCTATCTATTACGAGTTCATTCCGGAGTCACCTAGTGCAG	8620 fluorescence intensity (a.u.)
CATGCGTCGTACTAGTGTACTACTACTCTCCTTTCTTTACCGGAGTCACCTAGTGCAG	8200 fluorescence intensity (a.u.)
CCTCCATCCTTTGCTCCCAATATCACATTTGCGTTTTGCACGGAGTCACCTAGTGCAG	10000 fluorescence intensity (a.u.)
CTCTCTCTCTCTCTCTATCGATTGTCATAAAATTTCATAACGGAGTCACCTAGTGCAG	8030 fluorescence intensity (a.u.)
ACGAATGCTACGTACAGTCAACTTAATATTTCTTCGCCATCGGAGTCACCTAGTGCAG	8160 fluorescence intensity (a.u.)
ACTTGATCCCAGCATCCGCATCCGCAGCTGCAGCAGCAGCCGGAGTCACCTAGTGCAG	8090 fluorescence intensity (a.u.)
GGTTTGACTAACTTGAACAATTTTCATCAATCCCAAACTGCGGAGTCACCTAGTGCAG	8210 fluorescence intensity (a.u.)
CATCCGGCCATGGTGATGACCGGCGGCGATGATCAGCAGCCGGAGTCACCTAGTGCAG	48200 fluorescence intensity (a.u.)
ATTTTTTTCCTCTCTAGTTTCACAATGCCGGCAATTATTTCGGAGTCACCTAGTGCAG	8480 fluorescence intensity (a.u.)
TTATCTCTCCAGAGAGCCATTGCCGCCACTCCATCCTCGCCGGAGTCACCTAGTGCAG	8570 fluorescence intensity (a.u.)
GGAATGTTCTTTTGGTTCTGAATTCTGATTCATTTTCCTACGGAGTCACCTAGTGCAG	9620 fluorescence intensity (a.u.)
AGGTTCCTAGTGTTGATCATCTACTGTTTGCAGCTGGGTTCGGAGTCACCTAGTGCAG	11100 fluorescence intensity (a.u.)
GATTATTTTCTTCATACTCAGCATTCTTTTTTTTCTTCTTCGGAGTCACCTAGTGCAG	10600 fluorescence intensity (a.u.)
CGTTTTTGATCGCTGCCATCCCTACACCCTCATGCTGTTCCGGAGTCACCTAGTGCAG	10000 fluorescence intensity (a.u.)
GTACGTTGTTTGCCCATCCAAATCTATCCCAGCCTAAATCCGGAGTCACCTAGTGCAG	10700 fluorescence intensity (a.u.)
CTCGTTTGATCGTCTCACAATCACAATCTCTAAACATTGTCGGAGTCACCTAGTGCAG	8630 fluorescence intensity (a.u.)
TCCATCCCCATCCCCATTCCCCACCGCCGAACTCGGCCCGCGGAGTCACCTAGTGCAG	10500 fluorescence intensity (a.u.)
GTGGTGGTGTGTGCTCCTCGTGGCTCGCCGGATCACGTGGCGGAGTCACCTAGTGCAG	8030 fluorescence intensity (a.u.)
AGTTCGTTGTTTTTTTTATTATTCTTGGAATCTCCTCTTCCGGAGTCACCTAGTGCAG	8440 fluorescence intensity (a.u.)

Sequence	binding signal
CCTTGGATTTTAAAACTCCTTCCAGCTATTTTTCCGTTTTCGGAGTCACCTAGTGCAG	8290 fluorescence intensity (a.u.)
ATTCTTAAACCCGCCAATGGTTTTCCACGCGCCCACGTTACGGAGTCACCTAGTGCAG	8170 fluorescence intensity (a.u.)
ACGTATATTCACAGTTAAATTTGTTATTTTTATTATAATTCGGAGTCACCTAGTGCAG	8650 fluorescence intensity (a.u.)
TACAAATCAATGTCGCATTTGGTGTTCGACTGTTCGTTTCCGGAGTCACCTAGTGCAG	8420 fluorescence intensity (a.u.)
GATCCGCCTCGGCCGCCGCTCGATCCGCACCCGTACCCGCCGGAGTCACCTAGTGCAG	8180 fluorescence intensity (a.u.)
CATGCTCTTTAGTTTGTACTGTGTTCTGCGTTCTTATGTACGGAGTCACCTAGTGCAG	12700 fluorescence intensity (a.u.)
ACGTCGTTATCTTTTTTTAAACATGTTTAACCATTCGTCTCGGAGTCACCTAGTGCAG	8850 fluorescence intensity (a.u.)
TTGTTGAGATGTAAGTTAAGTGCTTTTGTATTTTTTTTGCCGGAGTCACCTAGTGCAG	8880 fluorescence intensity (a.u.)
TCGCCGAAATCCTAGCCGTCACTGTTCACCCTTCCTCGCTCGGAGTCACCTAGTGCAG	12100 fluorescence intensity (a.u.)
CTTGCTATTGTACCTGCTCTAATATGTAGCCATCTTTTCTCGGAGTCACCTAGTGCAG	9280 fluorescence intensity (a.u.)
TCACCAACGGCGCCACACATTCCGTCTTGTACTACAAGATCGGAGTCACCTAGTGCAG	11600 fluorescence intensity (a.u.)
TTGGGTTTCTTGGTTGCTCGAGATCTCTCTCTCTGCAATGCGGAGTCACCTAGTGCAG	11200 fluorescence intensity (a.u.)
TCTCTATCGATTCCAATGGTCTGTTGCTGAAAAGGACAATCGGAGTCACCTAGTGCAG	12900 fluorescence intensity (a.u.)
ACAATGATAATTCAGCTCGTTGCATGATCTACCTGACATTCGGAGTCACCTAGTGCAG	9080 fluorescence intensity (a.u.)
ACCCCAAGTACATCATTAGTATACATCATATTCCATCTTCCGGAGTCACCTAGTGCAG	9680 fluorescence intensity (a.u.)
ACATGTGCATGTATTAATTGTGTTTTAGCGTTTCAGATCGCGGAGTCACCTAGTGCAG	8230 fluorescence intensity (a.u.)
AGGGAGGAGTACATCTAGTAGTATAGGGGAGAGGGTGGGCCGGAGTCACCTAGTGCAG	11500 fluorescence intensity (a.u.)
TCTTTTACACTTCATTTATTTTTTCATGCACCAAGGCTTACGGAGTCACCTAGTGCAG	9810 fluorescence intensity (a.u.)
ATCATCTCGTTTTGTGTGAAACACTTCATCTTCATCTTCACGGAGTCACCTAGTGCAG	11100 fluorescence intensity (a.u.)
TCTTTTCTGAACCTTGATCTTTTCCTAAGCCTATCTTTCTCGGAGTCACCTAGTGCAG	8920 fluorescence intensity (a.u.)
GAGTTGAGGATGGGTAAGAATAATAACCGGTATAAAGTGACGGAGTCACCTAGTGCAG	8110 fluorescence intensity (a.u.)

Sequence	binding signal
GACTTAACCAAACAGTTTTCCGATCTTGCATTTTTTTCGTCGGAGTCACCTAGTGCAG	12800 fluorescence intensity (a.u.)
CCTCTCTCAGCTCAACTGCCTCCTCCTCTCTCTCTCTCCTCGGAGTCACCTAGTGCAG	10300 fluorescence intensity (a.u.)
GTCTCCGCCACCCGCCACCCGGGGAGCTCTGCCTCCGCCTCGGAGTCACCTAGTGCAG	8620 fluorescence intensity (a.u.)
GGACATTGTTTCCTTCTCTTCTCTTATTTATTCGTTTGCCCGGAGTCACCTAGTGCAG	10200 fluorescence intensity (a.u.)
GGGGCGTTGGGTCTTCTGTTCCCTAGAAGTATGGATTTCCCGGAGTCACCTAGTGCAG	11400 fluorescence intensity (a.u.)
GAACGGGCCGGTCGGGGAACGGGCGGGCGGGTATAAAGGCCGGAGTCACCTAGTGCAG	9450 fluorescence intensity (a.u.)
TTTTGGTATTTTCCTCGTATTGCAAGCCACGGGTACCAAACGGAGTCACCTAGTGCAG	8460 fluorescence intensity (a.u.)
TTACTGATGTTATTTCTATATTTTACCACCTTTCACGATACGGAGTCACCTAGTGCAG	8110 fluorescence intensity (a.u.)
CCTCACTGATCTGCTCCGCTTCGCCTCCGGGACTCCATCCCGGAGTCACCTAGTGCAG	12200 fluorescence intensity (a.u.)
ACACAAACCTCCTATCCCTCTAGCCATTAAACTATCCGTTCGGAGTCACCTAGTGCAG	9420 fluorescence intensity (a.u.)
GTCGTTTTGCACAAAGTTCCAGACCTTCCTGTCCGTTTGTCGGAGTCACCTAGTGCAG	8060 fluorescence intensity (a.u.)
TGATAGAGTTGTTAGATATGTGCATCCATTTAGTTTCTTGCGGAGTCACCTAGTGCAG	8550 fluorescence intensity (a.u.)
ATTGCCTGCCTAGCTTTCCTCCGATCCCAGTAGTGGTTCACGGAGTCACCTAGTGCAG	8680 fluorescence intensity (a.u.)
CTGCCGCCGCCGTCATCTCCGACGCTCCTCCGTGGCGGCCCGGAGTCACCTAGTGCAG	9090 fluorescence intensity (a.u.)
GCTGTTACCATTGGCCATATTTGCGATGCATTATTATGCCCGGAGTCACCTAGTGCAG	8030 fluorescence intensity (a.u.)
CGGCCCCGGCGGTTTGGAAACCCTACTTATCGTTCAACTACGGAGTCACCTAGTGCAG	9860 fluorescence intensity (a.u.)
ACCGTCAGCCTTCACTCACTCACACTATCACCGCGACACCCGGAGTCACCTAGTGCAG	8870 fluorescence intensity (a.u.)
CTAATTCCTTCATTTTCGTTTCTTTTTTCCTCGATGTTGCCGGAGTCACCTAGTGCAG	9530 fluorescence intensity (a.u.)
TTGGTTTCGGTCCGAGGATTTCTAGTTTGGTGGAGAATTACGGAGTCACCTAGTGCAG	9150 fluorescence intensity (a.u.)
GCAGGCGGCGGAGGATTTTTGGGAGGGGAAAACGGCGAGTCGGAGTCACCTAGTGCAG	8540 fluorescence intensity (a.u.)
GAAATACTCCAATGGGTTAACTTAGGGTCGGGAAGGGGAGCGGAGTCACCTAGTGCAG	10100 fluorescence intensity (a.u.)

A portion taken from the entries so far, for reference:
Sequence	binding signal
ACACAAACCTCCTATCCCTCTAGCCATTAAACTATCCGTTCGGAGTCACCTAGTGCAG	9420 fluorescence intensity (a.u.)
GTCGTTTTGCACAAAGTTCCAGACCTTCCTGTCCGTTTGTCGGAGTCACCTAGTGCAG	8060 fluorescence intensity (a.u.)
TGATAGAGTTGTTAGATATGTGCATCCATTTAGTTTCTTGCGGAGTCACCTAGTGCAG	8550 fluorescence intensity (a.u.)

Remaining list, next part:

Sequence	binding signal
GATCAGCTGATTGGTTGGTTTGGTTGTTGTGGTGGAGATGCGGAGTCACCTAGTGCAG	12200 fluorescence intensity (a.u.)
ACCGTCCGCGCCACATCGGAGCTCATCGCCGGCGGCCTCGCGGAGTCACCTAGTGCAG	8760 fluorescence intensity (a.u.)
TAGTCTTTGTCGTTTCCATGTATAACTCTATTTATCTTTCCGGAGTCACCTAGTGCAG	12400 fluorescence intensity (a.u.)
GGCCGGAGAGATTTTGTGGGGAGGAGGAGGATTGGTTGACCGGAGTCACCTAGTGCAG	11400 fluorescence intensity (a.u.)
TGTACTCATGACTTATATTTTTAATTTTTTTAAAAAATTTCGGAGTCACCTAGTGCAG	10000 fluorescence intensity (a.u.)
CGTCTCCGGCTCTCCGCTACTAGGGTTTGCGCGCGCAAGTCGGAGTCACCTAGTGCAG	8920 fluorescence intensity (a.u.)
AATTTTTTTTGCCGCTCCTGATGTTTTATGCGCAAAACGTCGGAGTCACCTAGTGCAG	8060 fluorescence intensity (a.u.)
TCATCTCTAGCCACTTCGCTTCAGCTTTTCTTCTTTCTTGCGGAGTCACCTAGTGCAG	9220 fluorescence intensity (a.u.)
ATTTTCGGGTGTCCTGTAGCAATTTTGCCTATTAAGTACTCGGAGTCACCTAGTGCAG	8320 fluorescence intensity (a.u.)
GTAGGGGTGGTGGATTTTTTTTTATTTGCTGAGATGATTTCGGAGTCACCTAGTGCAG	20600 fluorescence intensity (a.u.)
ATTTCTCCACTACTTATTTGTTTCAACCAATCATATCCATCGGAGTCACCTAGTGCAG	8840 fluorescence intensity (a.u.)
CTTCTCTCATCATTTGCAGGCACTAGTGATTAGCGCCACACGGAGTCACCTAGTGCAG	10100 fluorescence intensity (a.u.)
GATGTTTCCGTGTGTATTCAATTTTCGATATTGTTTTTCGCGGAGTCACCTAGTGCAG	10400 fluorescence intensity (a.u.)
CCCTTTCTTCTTCTTTTTTCTTTTTCTGAACGCGCACAATCGGAGTCACCTAGTGCAG	10300 fluorescence intensity (a.u.)
ATCTGTATTGTATGTTCAGTCATTCCTGCTACCCCATTTACGGAGTCACCTAGTGCAG	8430 fluorescence intensity (a.u.)
ATCCTTCTGGAGTAAGGTTTTGTGCTGGGTGGATTTGGGACGGAGTCACCTAGTGCAG	8500 fluorescence intensity (a.u.)
TTGTCTCAAGACTTCTCTGGCTATCTCATTGCTTAATTGGCGGAGTCACCTAGTGCAG	8690 fluorescence intensity (a.u.)
CATATCCACTTCGCCTCTTCCCTTTGATGTTGCGAGTGAACGGAGTCACCTAGTGCAG	9740 fluorescence intensity (a.u.)
ACCAATTTCCAGTTAACCGCCGTCTGAATTCATTTATCCACGGAGTCACCTAGTGCAG	9670 fluorescence intensity (a.u.)
GAGATCCTTCGCTGTCACTGTATCATGTCCTAAATGAGTCCGGAGTCACCTAGTGCAG	9020 fluorescence intensity (a.u.)
TCCTTGCTCGCGAATCCACTCGCGCGTGCGTGGGCCCCACCGGAGTCACCTAGTGCAG	8380 fluorescence intensity (a.u.)
